Library screen at single concentrations

Protein sequences, listed by entry. Tags and fused reporters are not part of them. Residues count along the entry.
UniProt A4I591, 1-473: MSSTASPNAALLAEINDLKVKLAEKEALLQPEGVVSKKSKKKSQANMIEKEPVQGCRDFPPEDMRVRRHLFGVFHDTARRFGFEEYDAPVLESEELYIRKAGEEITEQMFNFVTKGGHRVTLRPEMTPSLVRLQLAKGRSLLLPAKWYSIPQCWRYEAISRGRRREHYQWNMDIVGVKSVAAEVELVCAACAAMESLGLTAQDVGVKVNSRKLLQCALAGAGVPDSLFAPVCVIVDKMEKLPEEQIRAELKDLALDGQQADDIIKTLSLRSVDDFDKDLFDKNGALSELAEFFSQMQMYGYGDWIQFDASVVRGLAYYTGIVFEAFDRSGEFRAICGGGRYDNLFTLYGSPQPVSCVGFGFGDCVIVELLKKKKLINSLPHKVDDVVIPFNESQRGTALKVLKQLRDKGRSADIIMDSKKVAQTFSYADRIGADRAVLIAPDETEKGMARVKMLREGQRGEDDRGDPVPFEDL
UniProt P9WPC5, whole entry: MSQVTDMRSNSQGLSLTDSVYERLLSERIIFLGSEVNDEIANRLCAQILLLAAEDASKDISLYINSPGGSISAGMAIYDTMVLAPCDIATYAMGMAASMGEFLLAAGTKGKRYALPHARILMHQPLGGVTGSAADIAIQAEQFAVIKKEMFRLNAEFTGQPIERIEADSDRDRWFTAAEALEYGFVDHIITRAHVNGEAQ
UniProt P9WPC3, whole entry partner: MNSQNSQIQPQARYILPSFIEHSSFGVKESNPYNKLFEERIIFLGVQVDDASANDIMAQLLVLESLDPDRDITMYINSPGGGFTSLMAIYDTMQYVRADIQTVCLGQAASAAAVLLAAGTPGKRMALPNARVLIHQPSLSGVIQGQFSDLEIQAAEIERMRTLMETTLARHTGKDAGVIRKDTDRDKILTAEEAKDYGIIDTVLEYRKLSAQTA

Measurements from “University of Dundee, Small-Polar-MMV Screening Library” (2021), ChEMBL document CHEMBL3988442.

Each number is a percent effect as filed. The controls that fix the scale are not given in the record; negative values are as filed. This is an unselected part of the compounds tested. Two or more numbers in one place are separate tests of the same structure; such repeats can differ widely. A dash means the value is not listed here; it may have been measured.

LiHisRS: 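Histidine-tRNA ligase, Leishmania infantum (UniProt A4I591). Enzyme assay of histidyl-tRNA synthetase; the read-out is not stated. Tested at 30 µM. The record gives no direction; compounds that gave an IC50 in retests scored well above the rest, so higher reads as stronger inhibition. The assay is labelled LdHisRS but filed under L. infantum. Of about 69,000 compounds tested this way, about 410 (0.6%) reached 50% or more in at least one test.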
Toxoplasma: 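Assay of Toxoplasma gondii numbers, read through their beta-galactosidase reporter with a colour substrate. Compounds at 10 µM. Higher reads as fewer parasites (inferred from which compounds were picked for retests). About 67,000 compounds were tested under these conditions; 0.38% (about 260) showed 50% or more at least once.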
ClpP1P2: 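Protease assay of ClpP1P2, read by the AMC dye that it sets free. Target: ClpP1P2, Mycobacterium tuberculosis (UniProt P9WPC5 and UniProt P9WPC3). Tested at 50 µM. Higher reads as stronger inhibition, judged from the few compounds that gave an IC50. Most other retested compounds had strongly negative values. About 69,000 compounds were tested under these conditions; 0.015% (about 10) showed 50% or more at least once.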
T. brucei: 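Whole-parasite assay of Trypanosoma brucei over 72 hours; the read-out is not stated. Concentration: 30 µM. Higher reads as stronger inhibition (inferred: compounds with an IC50 in retests scored well above the rest). Values scatter widely below zero; nearly all retest evidence comes from the higher of the two concentrations used. Size under these conditions: about 64,000 compounds, about 940 of them at 50% or above in at least one test.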
Leishmania in macrophages: 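Cell assay of Leishmania donovani living inside macrophages; the read-out is not stated. Compounds at 30 µM. Higher reads as stronger inhibition (inferred: compounds with an IC50 in retests scored well above the rest). About 69,000 compounds were tested under these conditions; 1.5% (about 1,000) showed 50% or more at least once.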

SMILES,LiHisRS,Toxoplasma,ClpP1P2,T. brucei,Leishmania in macrophages
Cl.Cn1nc(C2CCCN(Cc3cccs3)C2)c2nccnc21 (centres undefined),-,-35.1,-,-12.36,-25.35
O=C(O)C(F)(F)F.[H][C@@]12CCCO[C@]1([H])[C@H](N(C)Cc1cncnc1)CN2C(=O)C1CC1,-,-17.75,-,-95.51,31.1
CCCSCC(=O)N1C[C@H]2CC[C@@H]1CN(c1ncccn1)C2,4.167,-,7.765,-,-
CN(C)C(=O)N1C[C@H]2CC[C@@H]1CN(C1Cc3ccccc3C1)C2,18.03,-,-3.035,-,-
Nc1ncnc2nc(C3CCCCN3)ccc12 (centres undefined),8.392,-,-10.81,-,-
CCOc1ccc(CCCC(=O)N2CC[C@H](NC(C)=O)C2)cc1C,10.87,-,-7.504,-10.83,30.83
CCc1nc(NC(=O)NCCc2cscn2)nn1C,11.29,5.42,-5.273,21.44,21.87
O=C(O)C(F)(F)F.[H][C@]12CN(C(=O)c3cncc(C)c3)C[C@@]1([H])OCCN(S(C)(=O)=O)C2,-,-0.9033,-,-44.79,11.11
Cc1ccc(CN2CCOCC2c2[nH]ncc2C)cn1 (centres undefined),9.859,24.76,-8.875,9.03,37.85
Cc1ccc(C)c(NCc2nc3n(n2)CCCCC3)c1,10,-2.731,-4.533,-52.35,-6.245
c1cnnc(N[C@@H]2CC[C@@H]3CN(Cc4ccc5cc[nH]c5c4)C[C@@H]32)c1,20.13,-,1.779,-,-
CC(C)NC(=O)CN(C)C(=O)c1csc(Cc2ccccc2F)n1,8.235,-8.234,-8.272,-2.186,-14.49
CN(CCCNC(=O)CN1CCS(=O)(=O)CC1)c1ccccc1,25,-3.65,10.65,-20.79,27.75
O=C(CSC1CCc2ccccc2NC1=O)NCCc1ccc(O)cc1 (centres undefined),23.38,-7.549,-6.68,11.65,-18.87
[H][C@@]12CCN(C[C@@H]1c1cc(-c3cccs3)nn1C)[C@@H](CN)C2,-,12.07,-,19.77,10.14
O=C1NCC2(CCCN(Cc3ccccc3OCCO)C2)O1 (centres undefined),0,-2.462,0.392,-15.41,31.56
Cc1noc2ncc(S(=O)(=O)Nc3cc(CC(C)(C)C)[nH]n3)cc12,5.759,0.8115,-0.3866,-33.62,32.33
Cc1cccc(OCCNC(=O)Cn2ccc(C)cc2=O)c1,16.67,-10.63,12.24,-15.17,11.9
COC1COC2(CCN(C(=O)c3cscn3)CC2)C1 (centres undefined),-212,6.993,-1.004,-28.25,-0.1525
[H][C@@]12CN(C(=O)Nc3ccccc3)C[C@]1([H])OCCN2C(=O)c1ccco1,-,1.352,-,-80.35,25.94
[H][C@]12CC[C@]([H])(CN(C(=O)c3ccncc3)C1)N(C(=O)c1cncnc1C)C2,-,3.571,-,-16.93,17.14
CCc1noc(CC)c1CNC(=O)Nc1ccc2[nH]nnc2c1,14.04,8.884,0.2289,-12.06,6.31
CS(=O)(=O)N1CCC2(CCCN(Cc3ccccn3)C2)C1.O=C(O)C(F)(F)F.O=C(O)C(F)(F)F (centres undefined),-,-2.928,-,-115.5,-13.74
Cc1ccccc1CSc1nc(N)cc(N2CCCC(C(N)=O)C2)n1 (centres undefined),15.15,0.2887,3.699,-18.36,-28.34
O=C1NCCN1C1CCN(CCOc2ccccc2F)CC1,16.51,20.12,-24.61,-,31.49
CN1CCC(N2CCC[C@H]2c2nc(-c3cncnc3N)no2)CC1,9.459,-8.073,-1.09,-13.91,13.89
CCOCCCNc1ncc(-c2cccc(F)c2)c(-c2nccn2C)n1,1.429,-9.585,-43.87,-18.43,0.0295
COCCC(=O)N1CC[C@@H](N(C)C)[C@@H]1Cc1ccccc1,6.569,-0.3882,8.972,2.09,9.423
Cc1cnn(C2CCCN(C(=O)c3ccc(N4CCCC4)nc3)C2)c1 (centres undefined),12.17,3.919,-1.008,1.214,-1.444
CC(C)(C)N1CCCN(C(=O)c2csc(S(N)(=O)=O)c2)CC1,-1.887,0.1595,-1.373,-25.98,-19.35
CCc1nccn1CC(=O)N1C[C@H]2CC[C@@H]1CN(S(=O)(=O)N(C)C)C2,13.7,-,-9.556,-,-
COCCN(C)C[C@@H]1CN(C(=O)c2cccc(C(F)(F)F)c2)C[C@@H]1CO,19.23,-2.539,-14.55,11.12,14.68
NC(=O)c1cc(NC(=O)NCCc2cc(F)cc(F)c2)ccc1F,18.75,-2.447,-4.387,9.642,0.8903
Cc1cccn2c(=O)cc(CN3CCCC3Cn3cccn3)nc12 (centres undefined),26.23,9.913,1.94,-29.09,13.45
CCOc1ccc(CN2C(=O)CC3(CCCC3)C2=O)nc1,0,8.718,13.2,-35.18,-27.06
CCOCC1CN(C(=O)c2cnccn2)Cc2cnn(CC3CC3)c21.O=C(O)C(F)(F)F (centres undefined),-,-11.94,-,61.22,7.873
COCC(=O)NCC[C@H]1CC(C)(C)Oc2ccccc21,5.714,-1.21,-8.02,18.14,9.745 & -3.438
O=C(O)C(F)(F)F.[H][C@@]12COC[C@]1([H])[C@@H](OCC1CC1)CN2Cc1c(C)noc1C,-,12.51,-,-12.74,5.854
CCN1CCn2c(C)cnc2C12CCN(C(=O)N(C)C)CC2.O=C(O)C(F)(F)F.O=C(O)C(F)(F)F,-,-1.542,-,-17.98,6.426
CCCc1cncnc1N1CCC2(CCC(=O)N(C3CCCC3)C2)CC1,22.95,11.85,4.41,-30.09,19.75
CCc1nc(C(=O)NCc2ccc(N3CCNC(=O)C3)c(F)c2)c[nH]1,13.46,-1.5,6.138,-6.752,13.84
O=C(Nc1ccnc(OC2CCOC2)c1)c1cccs1 (centres undefined),17.81,-2.023,-5.989,-18,38.07
Fc1ccccc1C1(CNC2CCOC3(CCOCC3)C2)CCCC1 (centres undefined),12.64,7.346,-0.9474,-21.64,4.908
Cn1ccnc1CN1CCC(Cn2cc(-c3ccccc3)nn2)CC1,1.429,7.116,17.62,-42.84,-2.994
COCC1c2c(cnn2C)CCN1C(=O)c1cc(C)on1.O=C(O)C(F)(F)F (centres undefined),-,-5.141,-,-52.05,13.09
O=C(O)C(F)(F)F.O=C1CCC2(CCN(Cc3ccc(F)cc3)CC2)N1Cc1ccccc1,-,3.273,-,-4.503,31.72
[H][C@@]12CCN(Cc3cnn(C)c3)C[C@]1([H])[C@H](C(=O)NCCOC)CCO2,-,-4.986,-,-0.2922,-3.359
COc1ncccc1CN1C[C@H]2CCN(c3ncccn3)C[C@H]2C1,3.846,-,-12.34,-,-
Cl.[H][C@@]12CN(C3CCCCC3)CC[C@]1([H])N(C(=O)C1CCC1)C[C@H]2c1ccsc1,-,10.21,-,-,-71.23
CC(C)(C)CCN1CCCC(Cn2cc(CCO)nn2)C1 (centres undefined),5.556,-1.574,-0.8981,-16.9,15.86

3 of the entries, repeated:

SMILES,LiHisRS,Toxoplasma,ClpP1P2,T. brucei,Leishmania in macrophages
CN(C)C(=O)N1C[C@H]2CC[C@@H]1CN(C1Cc3ccccc3C1)C2,18.03,-,-3.035,-,-
O=C(O)C(F)(F)F.O=C1CCC2(CCN(Cc3ccc(F)cc3)CC2)N1Cc1ccccc1,-,3.273,-,-4.503,31.72
Nc1ncnc2nc(C3CCCCN3)ccc12 (centres undefined),8.392,-,-10.81,-,-